The IC50 is the concentration that inhibits the measured activity by half. The low end stands for higher potency, the high end for lower potency.

By UniProt entry, the sequences of proteins in these tests, tags left out.
UniProt Q9Y463, whole entry: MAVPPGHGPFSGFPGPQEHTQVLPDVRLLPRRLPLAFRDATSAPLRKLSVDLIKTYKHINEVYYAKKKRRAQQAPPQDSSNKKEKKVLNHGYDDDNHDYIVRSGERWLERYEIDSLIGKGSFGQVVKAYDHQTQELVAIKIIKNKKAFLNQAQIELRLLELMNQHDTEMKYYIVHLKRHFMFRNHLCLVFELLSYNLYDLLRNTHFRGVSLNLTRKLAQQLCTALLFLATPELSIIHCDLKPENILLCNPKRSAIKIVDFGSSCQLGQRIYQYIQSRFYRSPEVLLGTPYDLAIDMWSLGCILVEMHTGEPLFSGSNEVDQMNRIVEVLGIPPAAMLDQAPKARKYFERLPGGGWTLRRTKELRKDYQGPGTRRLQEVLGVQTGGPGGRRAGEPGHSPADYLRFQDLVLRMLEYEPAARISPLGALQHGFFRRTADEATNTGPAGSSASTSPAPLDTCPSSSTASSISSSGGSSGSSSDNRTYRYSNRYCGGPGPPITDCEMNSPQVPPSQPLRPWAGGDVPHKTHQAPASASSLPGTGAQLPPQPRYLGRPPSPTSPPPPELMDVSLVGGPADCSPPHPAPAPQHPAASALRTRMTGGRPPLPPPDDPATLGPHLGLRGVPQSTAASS

Drawing on ChEMBL document CHEMBL4819156, “Synthesis of novel 1H-Pyrazolo[3,4-b]pyridine derivatives as DYRK 1A/1B inhibitors” (Bioorg Med Chem Lett, 2021), this text covers IC50 for one molecule.

Structures are written as SMILES.

The target in this experiment is Dual specificity tyrosine-phosphorylation-regulated kinase 1B (Homo sapiens, UniProt Q9Y463). Kind of experiment: Inhibition of DYRK1B (unknown origin).

`Oc1ccc(-c2n[nH]c3ncc(-c4ccc(O)c(O)c4)cc23)cc1` came in with an IC50 of 3 nM.
